# System: choline oxidase and/or HRP
# Experiment: Second/third reaction of the Amplex Red assay, in the absence of ATX
# Format: biochemical
# Settings: no ATX, choline chloride 2 µM; compounds at 100 μM (KM-28 50 μM, SC-41 30 μM)
row,Compound,Inhibition of 2nd/3rd Reaction
1,"O=C(CSc1nc2cc(Cl)ccc2o1)Nc1cc(C(F)(F)F)cc(C(F)(F)F)c1 [HTS01561, N-[3,5-bis(trifluoromethyl)phenyl]-2-[(5-chloro-1,3-benzoxazol-2-yl)thio]acetamide]",YES
2,"COc1cccc(NC(=S)N2CCn3cccc3C2c2ccc(OC)c(OC)c2)c1 (stereo not shown) [KM-26, 1-(3,4-dimethoxyphenyl)-N-(3-methoxyphenyl)-3,4-dihydro-1H-pyrrolo[1,2-a]pyrazine-2-carbothioamide]",partial inhibition and yes
3,"O=C(Nc1c2c(nn1-c1ccc([N+](=O)[O-])cc1)CSC2)c1cccc2ccccc12 [SC-49, N-[2-(4-nitrophenyl)-4,6-dihydrothieno[3,4-c]pyrazol-3-yl]naphthalene-1-carboxamide]",no
4,"N#Cc1ccc(-c2c(NC(=O)NS(=O)(=O)c3ccccc3Cl)oc(-c3ccco3)c2C#N)cc1 [CD09529, 2-[({[(2-chlorophenyl)sulphonyl]amino}carbonyl)amino]-4-cyano-3-(4-cyanophenyl)-5-(2-furyl)furan]",YES
5,"CC(=O)Oc1ccccc1C(=CC=C(c1ccccc1)c1ccccc1)N1CCOCC1 [RF01254, 2-(1-morpholino-4,4-diphenylbuta-1,3-dienyl)phenyl acetate]",YES
6,"Cc1cccc(C)c1NC(=O)CSc1nc2ccccc2c(=O)n1CCc1cccs1 [KM-28, N-(2,6-dimethylphenyl)-2-[4-oxo-3-(2-thiophen-2-ylethyl)quinazolin-2-yl]sulfanylacetamide]",no
7,"CCOC(=O)c1c(CN2CCCCC2)n(Cc2ccccc2)c2cc(Br)c(O)cc12 [KM-14, ethyl 1-benzyl-6-bromo-5-hydroxy-2-(piperidin-1-ylmethyl)-1H-indole-3-carboxylate]",no
8,"Cc1[nH]c2ccccc2c1C1=CCN(S(=O)(=O)c2cccc3nsnc23)CC1 [SC-41, 4-{[4-(2-Methyl-1H-indol-3-yl)-3,6-dihydropyridin-1(2H)-yl]sulfonyl}-2,1,3-benzothiadiazole]",no
9,"CCOC(=O)C1CCN(C(=O)Cc2c(Sc3ccc(Cl)cc3)[nH]c3ccccc23)CC1 [KM-24, ethyl 1-[2-[2-(4-chlorophenyl)sulfanyl-1H-indol-3-yl]acetyl]piperidine-4-carboxylate]",no
10,"O=C(CCN1CCN(C(=O)OCc2cc(Cl)cc(Cl)c2)CC1)c1ccc2[nH]c(=O)oc2c1 [PF-8380, 3,5-Dichlorobenzyl 4-(3-oxo-3-(2-oxo-2,3-dihydrobenzo[d]oxazol-6-yl)propyl)piperazine-1-carboxylate, reference compound]",no
